This note sets out measurements from PMC11383612.

Protein sequences, listed by entry. Tags and fused reporters are not part of them.
UniProt Q3TKT4: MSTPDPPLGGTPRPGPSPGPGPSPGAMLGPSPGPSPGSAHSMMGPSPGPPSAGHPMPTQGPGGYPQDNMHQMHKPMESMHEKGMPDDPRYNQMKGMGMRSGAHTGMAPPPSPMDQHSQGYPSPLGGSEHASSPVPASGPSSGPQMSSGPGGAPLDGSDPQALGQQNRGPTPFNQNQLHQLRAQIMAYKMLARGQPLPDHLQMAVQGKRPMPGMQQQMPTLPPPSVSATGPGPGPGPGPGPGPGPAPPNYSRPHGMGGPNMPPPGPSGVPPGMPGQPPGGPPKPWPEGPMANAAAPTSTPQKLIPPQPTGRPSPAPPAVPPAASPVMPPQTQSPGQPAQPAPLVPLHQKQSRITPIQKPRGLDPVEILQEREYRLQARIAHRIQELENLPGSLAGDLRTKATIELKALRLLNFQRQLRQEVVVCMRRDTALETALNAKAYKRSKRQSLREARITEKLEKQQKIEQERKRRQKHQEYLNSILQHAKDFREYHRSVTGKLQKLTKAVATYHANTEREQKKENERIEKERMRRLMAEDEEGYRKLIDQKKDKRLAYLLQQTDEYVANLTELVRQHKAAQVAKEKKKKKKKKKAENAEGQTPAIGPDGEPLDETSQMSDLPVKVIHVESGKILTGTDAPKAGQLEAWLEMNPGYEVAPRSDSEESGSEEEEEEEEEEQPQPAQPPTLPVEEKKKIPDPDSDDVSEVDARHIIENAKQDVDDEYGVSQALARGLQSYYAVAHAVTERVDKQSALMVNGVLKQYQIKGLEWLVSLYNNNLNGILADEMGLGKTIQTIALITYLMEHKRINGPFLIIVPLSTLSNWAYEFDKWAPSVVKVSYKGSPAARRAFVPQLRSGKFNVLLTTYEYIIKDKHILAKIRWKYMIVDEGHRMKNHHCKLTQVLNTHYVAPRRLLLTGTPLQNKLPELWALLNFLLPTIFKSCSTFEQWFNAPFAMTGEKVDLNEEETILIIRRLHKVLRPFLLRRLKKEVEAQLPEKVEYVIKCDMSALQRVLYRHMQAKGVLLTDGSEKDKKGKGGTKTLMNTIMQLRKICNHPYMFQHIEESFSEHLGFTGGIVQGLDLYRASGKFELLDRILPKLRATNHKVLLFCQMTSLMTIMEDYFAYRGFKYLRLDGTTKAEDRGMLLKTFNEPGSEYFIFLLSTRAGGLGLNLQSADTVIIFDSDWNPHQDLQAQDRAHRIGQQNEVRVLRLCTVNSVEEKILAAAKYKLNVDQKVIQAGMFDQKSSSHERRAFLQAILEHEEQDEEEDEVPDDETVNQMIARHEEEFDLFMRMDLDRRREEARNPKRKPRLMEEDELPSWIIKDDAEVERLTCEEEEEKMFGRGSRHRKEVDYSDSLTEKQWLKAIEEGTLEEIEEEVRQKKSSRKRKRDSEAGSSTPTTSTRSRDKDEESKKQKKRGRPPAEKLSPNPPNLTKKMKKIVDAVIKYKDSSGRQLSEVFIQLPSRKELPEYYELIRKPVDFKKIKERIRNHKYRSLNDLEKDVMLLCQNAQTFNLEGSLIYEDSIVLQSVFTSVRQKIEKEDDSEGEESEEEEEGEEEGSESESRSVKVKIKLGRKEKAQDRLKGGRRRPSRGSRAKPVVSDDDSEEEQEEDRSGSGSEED

These are yes or no findings as the source states them, for the method shown. Binding seen in cells or lysates may run through a third protein. Some binding calls cover weakened binding; strength is not graded here.

Assay [1] deals with BRG1 (also known as SMARCA4) (mouse (endogenous in OT-I CD8+ T cells)) (UniProt Q3TKT4). In words: co-IP; anti-BRG1 immunoprecipitation from naive CD8+ T cells, Western blot. A general note: A western blot detects proteins with antibodies after separation by electrophoresis.
The target is the same in assay [2]. Put plainly: co-IP; anti-BRG1 antibody or rabbit normal IgG, protein A/G agarose beads, 4 °C, Western blot; lysates of effector OT-I CD8+ T cells (PR8-OVA, day 8 p.i.), BRD7 WT (Brd7fl/fl) and BRD7-deficient.

B1: bromodomain-containing protein 7 (BRD7) (protein, UniProt O88665 1-651)
chain: MGKKHKKHKSDRHFYEEYVEKPLKLVLKVGGSEVTELSTGSSGHDSSLFEDRSDHDKHKDRKRKKRKKGEKQAPGEEKGRKRRRVKEDKKKRDRDRAENEVDRDLQCHVPIRLDLPPEKPLTSSLAKQEEVEQTPLQEALNQLMRQLQRKDPSAFFSFPVTDFIAPGYSMIIKHPMDFSTMKEKIKNNDYQSIEELKDNFKLMCTNAMIYNKPETIYYKAAKKLLHSGMKILSQERIQSLKQSIDFMSDLQKTRKQKERTDACQSGEDSGCWQREREDSGDAETQAFRSPAKDNKRKDKDVLEDKWRSSNSEREHEQIERVVQESGGKLTRRLANSQCEFERRKPDGTTTLGLLHPVDPIVGEPGYCPVRLGMTTGRLQSGVNTLQGFKEDKRNRVTPVLYLNYGPYSSYAPHYDSTFANISKDDSDLIYSTYGEDSDLPNNFSISEFLATCQDYPYVMADSLLDVLTKGGHSRSLQDLDMSSPEDEGQTRALDTAKEAEITQIEPTGRLESSSQDRLTALQAVTTFGAPAEVFDSEEAEVFQRKLDETTRLLRELQEAQNERLSTRPPPNMICLLGPSYREMYLAEQVTNNLKELTQQVTPGDVVSIHGVRKAMGISVPSPIVGNSFVDLTGECEEPKETSTAECGPDAS
For B1, the binding result in assay [1] was “no binding (condition: in naive CD8+ T cells)”; in assay [2] it was “binds”.
